Whole data set: some 33,000 sequences, median “E-score (-0.5 to 0.5)” near -0.0014, cut for the highest 2% near 0.25. The list shows a part of the results.
Biological target: T1, Cad1 (UniProt P24813)
T1 sequence: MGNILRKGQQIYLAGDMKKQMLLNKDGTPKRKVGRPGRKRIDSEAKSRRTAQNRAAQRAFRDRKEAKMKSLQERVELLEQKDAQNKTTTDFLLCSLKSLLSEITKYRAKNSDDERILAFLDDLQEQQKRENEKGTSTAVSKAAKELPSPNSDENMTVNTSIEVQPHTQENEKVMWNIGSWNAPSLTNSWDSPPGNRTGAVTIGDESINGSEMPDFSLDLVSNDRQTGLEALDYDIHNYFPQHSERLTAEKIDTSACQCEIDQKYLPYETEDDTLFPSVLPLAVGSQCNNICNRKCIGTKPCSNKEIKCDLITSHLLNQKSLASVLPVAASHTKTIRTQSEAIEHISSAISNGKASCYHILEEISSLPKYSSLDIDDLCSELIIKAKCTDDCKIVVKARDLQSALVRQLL
Assay: PBM E-score (8-mer binding enrichment) (E-score (-0.5 to 0.5)); higher = stronger / more preferred TF binding
Settings: protein concentration: 100 nM; construct: GST-full length
Procedure: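 Universal 'all 10-mer' protein binding microarrays (Agilent AMADID 015681) probed with GST-tagged S. cerevisiae TFs (full-length or DBD) made by in vitro transcription/translation (PURExpress), about 100-200 nM. Bound TF was detected with fluorescent anti-GST. Each ungapped 8-mer (which stands for itself and its reverse complement) is scored by the PBM enrichment score (E-score), a modified Wilcoxon-Mann-Whitney statistic from -0.5 to +0.5, computed with the Universal PBM Analysis Suite. Scale: above 0.35 generally sequence-specific binding.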

Sequence | PBM E-score
GCGATGAA | 0.108
CTTCAAAC | 0.145
AGCTAGTA | 0.0145
AACACGGT | -0.0697
GAGGAGGC | -0.236
ATGGTAGA | 0.0551
CTGAAACA | 0.0746
AGTATTTA | 0.16
AGCTAGCT | 0.162
CTAACGGA | 0.294
GGAACATA | 0.0521
CGATGTAG | -0.117
CTTTCTTC | -0.034
AACAAATT | 0.228
AGGATACG | -0.141
AGAAATAC | 0.0988
CCTCGCGA | 0.121
AGGCGGTC | -0.224
ACAAGTGG | 0.0151
CGATGAAC | 0.102
ACATGCAA | -0.129
ATCCGTAC | 0.177

Sequence | PBM E-score
GACAATCA | 0.0526
CTTAAACC | -0.109
GGACCACC | 0.0199
GGCCCACA | 0.0128
CGAGTAAG | 0.146
CCTGTTTA | 0.0698
CACGTGGC | -0.06
GTAGTCAC | -0.193
CTAGAGGA | -0.272
AGAGCTAG | 0.0182
GCCTGCAA | 0.0411
AGTGTAGC | -0.0088
ACTTCGAT | 0.0731
CGCTACTC | 0.0265
AAGGGGTG | -0.176
AAAGAATC | -0.0708
GATCTGCC | 0.001
ATACGATC | 0.11
CCGTTCCC | -0.0828
ACAGCAAT | 0.11
GAGCAGCA | 0.0911
AGCATGGG | -0.341

Sequence | PBM E-score
GAATGAGA | 0.117
TTGCGAAA | 0.158
AAGTTTCC | 0.122
AAGCAAGC | 0.0372
AGTGAGCG | 0.129
GTAAATAC | 0.0213
GGAGTGCA | -0.00305
AATGTGCA | 0.0742
GAAAAGTA | 0.049
CGCTTACA | 0.208
GCCCATAA | -0.19
GAGACTGA | -0.0515
GAATCGAC | 0.176
CTAACCTA | -0.129
AATTACCA | 0.241
GGGCAGGA | 0.065
AAGCTTCC | -0.0751
ATTATGTC | 0.181
TGTAGCAA | -0.0131
GCTCACCA | -0.187
CTGTAGCC | -0.0863
ACCCTGCA | 0.117

Sequence | PBM E-score
CAACATGG | -0.0363
ATGGCACG | -0.238
ATCGGCGA | -0.112
AACGATTA | 0.0716
ATACGTAT | 0.298
ATAGATTC | -0.0176
GCTCCCCA | -0.383
CTTGGGCA | 0.103
AAAAGTGT | -0.074
GGGACGTA | -0.209
GCGTAGCA | -0.012
TAACCCTA | -0.113
ACCGCCGT | -0.0802
CATGCATG | 0.252
AGTGGCCA | -0.00136
AACTCATT | 0.0357
TAGTTTAA | 0.168
GACCGGGC | -0.104
CGAGACTC | 0.0936
GAGGTCGC | -0.137
CTAAGTAG | 0.0818
AGTACCGG | -0.179

Sequence | PBM E-score
AGAATACC | 0.136
GTATTGGA | 0.00944
GATTGAGA | 0.115
AAGGTTGG | -0.163
CTTAGTCA | 0.38
AAGCTACG | -0.0714
CCACTCCG | 0.0604
GATAGTCC | 0.111
AACGATAC | 0.0534
GCATCGCA | -0.216
AATTAGAT | 0.252
GCCGAAAC | 0.061
CCACGTAA | -0.00447
GCAATGCC | 0.0643
CCTAAGAA | -0.0389
GTCCCCCA | -0.361
ACCGGATC | -0.0514
ATATTCAA | 0.144
GGACAAGA | -0.144
ATTTTACG | 0.21
CGAATGAG | 0.147

3 entries from above, as comma-separated lines.
Sequence,PBM E-score
CACGTGGC,-0.06
GAGACTGA,-0.0515
CAACATGG,-0.0363

Source: the supplement of paper PMC3334620
